Measurements reported in article PMC3817791.
No constants are given. Whether binding was seen depends on the method and setting. Binding seen in cells or lysates may run through a third protein.

The chains behind the UniProt entries cited, without tags or fusion partners. Where a name states a change or a piece, a line headed by the entry shows the natural chain unless it says otherwise. A line that says so, or that is headed by a name, gives the form on record, which may keep a tag or linker.
UniProt P84095: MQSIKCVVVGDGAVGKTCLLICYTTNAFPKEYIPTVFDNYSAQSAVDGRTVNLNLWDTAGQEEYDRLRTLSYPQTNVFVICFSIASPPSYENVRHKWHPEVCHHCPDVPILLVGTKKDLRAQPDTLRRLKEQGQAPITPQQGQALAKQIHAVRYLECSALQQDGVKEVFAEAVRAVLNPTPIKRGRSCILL
GST–RhoG-L61 (P84095, form named): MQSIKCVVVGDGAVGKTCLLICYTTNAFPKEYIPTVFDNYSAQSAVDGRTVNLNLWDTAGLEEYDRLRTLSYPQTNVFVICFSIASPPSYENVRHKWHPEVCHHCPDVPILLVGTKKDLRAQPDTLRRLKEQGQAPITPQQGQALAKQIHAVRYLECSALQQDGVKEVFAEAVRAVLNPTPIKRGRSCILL
MBP-tagged RhoG-V12 (P84095, form named): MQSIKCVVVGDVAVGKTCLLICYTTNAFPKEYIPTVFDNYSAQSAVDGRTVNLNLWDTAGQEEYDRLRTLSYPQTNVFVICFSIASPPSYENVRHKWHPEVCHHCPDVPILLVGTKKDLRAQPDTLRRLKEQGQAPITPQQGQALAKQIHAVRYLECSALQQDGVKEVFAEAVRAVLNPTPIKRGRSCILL
UniProt Q7TMB8: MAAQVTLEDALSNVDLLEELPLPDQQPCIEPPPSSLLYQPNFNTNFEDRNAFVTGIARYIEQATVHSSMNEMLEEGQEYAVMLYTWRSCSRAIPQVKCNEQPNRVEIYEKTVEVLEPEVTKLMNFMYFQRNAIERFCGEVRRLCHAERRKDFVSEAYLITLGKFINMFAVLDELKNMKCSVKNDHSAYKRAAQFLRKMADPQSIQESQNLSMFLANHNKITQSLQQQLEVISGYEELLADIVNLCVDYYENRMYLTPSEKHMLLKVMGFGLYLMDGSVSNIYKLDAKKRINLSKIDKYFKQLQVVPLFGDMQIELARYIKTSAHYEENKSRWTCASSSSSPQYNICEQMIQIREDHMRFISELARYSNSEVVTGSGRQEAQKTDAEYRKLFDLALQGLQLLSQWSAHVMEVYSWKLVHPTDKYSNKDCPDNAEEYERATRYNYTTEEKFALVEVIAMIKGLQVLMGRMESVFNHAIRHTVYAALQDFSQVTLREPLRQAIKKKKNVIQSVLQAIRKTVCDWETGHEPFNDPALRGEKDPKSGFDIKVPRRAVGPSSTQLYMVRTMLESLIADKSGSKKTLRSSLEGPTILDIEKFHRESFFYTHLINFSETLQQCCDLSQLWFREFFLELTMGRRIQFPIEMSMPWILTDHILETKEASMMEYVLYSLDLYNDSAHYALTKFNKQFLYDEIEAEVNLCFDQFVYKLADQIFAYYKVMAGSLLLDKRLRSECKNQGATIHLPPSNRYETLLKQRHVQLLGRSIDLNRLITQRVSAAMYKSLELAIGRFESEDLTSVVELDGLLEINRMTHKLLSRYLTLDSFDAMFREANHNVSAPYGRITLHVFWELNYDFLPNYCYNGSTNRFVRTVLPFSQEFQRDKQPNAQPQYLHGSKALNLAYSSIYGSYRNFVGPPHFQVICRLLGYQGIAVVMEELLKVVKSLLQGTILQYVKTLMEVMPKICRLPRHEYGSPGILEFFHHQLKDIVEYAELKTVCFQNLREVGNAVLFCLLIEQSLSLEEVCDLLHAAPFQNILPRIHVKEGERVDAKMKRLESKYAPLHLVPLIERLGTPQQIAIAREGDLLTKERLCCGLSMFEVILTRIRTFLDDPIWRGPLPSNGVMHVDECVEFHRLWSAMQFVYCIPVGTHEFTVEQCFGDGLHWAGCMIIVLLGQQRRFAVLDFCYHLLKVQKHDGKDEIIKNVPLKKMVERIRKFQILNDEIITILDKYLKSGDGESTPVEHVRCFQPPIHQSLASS

Key:
GST–RhoG-L61 = GST–RhoG-L61 (UniProt P84095); assay: pull-down; 200 pmol recombinant GTPase bound to resin incubated with 800 µg cleared B16-F1 cell lysate in buffer L1 (50 mM Tris-HCl, 50 mM NaCl, 15 mM KCl, 15 mM MgCl2, 1 mM EGTA, 20 mM NaF, 1% PEG 3350, 1% Triton X-100, pH 7.5), 1 hour, 4°C; bound Sra-1 detected by western blot; only the target purified
MBP-tagged RhoG-V12 = MBP-tagged RhoG-V12 (UniProt P84095); assay: as above

Sra-1 (from UniProt Q7TMB8 1-1253)
binding (GST–RhoG-L61): no binding (tested: 200 pmol bait on resin, 800 µg lysate) | binding (MBP-tagged RhoG-V12): no binding (tested: 200 pmol bait on resin, 800 µg lysate)
